Source: PubChem BioAssay AID1508600 (Functional Genomics Laboratory (NCATS/FGL), 2020)
Out of some 53,000 sequences screened, about 3,700 (7%) were called active.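 How the source made its calls: active means gene knockdowns whose robust z-score for IL-1 alpha signal is at least 2 or at most -2, so actives lie on both sides; inactive means the rest.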 The list shows a part of the results.

assay: Components of the Cytosolic LPS Sensing Pathway: Gene Identification via Genome-wide siRNA Screen; settings: RAW264.7 macrophages, IL-1a HTRF, actives lie on both sides, screened at 100 nM (by protocol), cells primed 5 h with Pam3CSK4 first;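 further: robust z of the log signal after scaling to non-targeting control siRNA wells of the plate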
Outline: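 Using IL-1a HTRF as read-out, the screen measured release from RAW264.7 cells after 48h siRNA knockdown (100 nM), 5 h Pam3CSK4 priming and 24 h cytosolic LipidA. Values were expressed relative to negative-control wells as robust z-scores.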

z-score, inactive:
GGUGGUUAUGAAACUAUCUTT against Kdm5c -0.637
GGUCCUACUUGUUCAUUGATT against Il1rl1 -0.802
GCCUGAUUUUACUUAAAAGTT against H2aj -1.26
GGCUGUCACGGAAAUGUAGTT against Rrp7a -0.315
GCGAUUCUCCGUGAUGUACTT against Mettl7a1 -1.82
GGACAUCCGACACUUUAACTT against Abcb9 0.373
GGACUUUGAGGAGAAGAAGTT against Maml1 0.957
GGAGAAAAAGCAACUUCAATT against Epsti1 0.569
GGAAAACCAGGUGAACCUCTT against Gch1 -0.505
GGUAAAUUCAACUGGAAGGTT against Lyar 0.194
CCCGUAGGUAAUACAAAUATT against Foxd4 0.721
GGACUGAGAAUCUUCUGUATT against Kctd4 -0.297
GGAAAACCGGAACAACCAGTT against Kpna2 0.957
GGUACAGAACAGGAUGGUATT against Zbtb33 -0.466
GGUGUUCUAAUUCUGAGGCTT against Tcstv1 -1.48
GGAAAAGAAAUUUGCUGAUTT against Ugt3a2 -0.821
GCAGCCUUUGUACCAUUAUTT against Samt2 -1.45
GGAGGUACUUACAAUUUUGTT against Kpna3 0.193
CGUACAUCUGUCCUACAUGTT against Tmem216 -0.259
GGAUAGCAAUUACCUGCUATT against Strap -0.276
GGAAGAAUCUUUCUGAUGGTT against Pon3 -1.7
GCUUAGUGGUGUCAUCUCCTT against Stx1a 1.4
GCUUUUUUAUGCAUUCCAATT against Rock1 0.575
GCCUUCAGGAAAAUCACUATT against Olfr849 -1.14
GGACAAGGUUGUGUCUGUGTT against Olfr1508 -1.48
GGGAAUCAGAGGCUGGUAATT against Rrnad1 1.78
GAGCUUUGUGCUGAACCUGTT against Lgals1 -1.98

Quoted from above (2 entries):
z-score, inactive:
GGAGAAAAAGCAACUUCAATT against Epsti1 0.569
GGAAAACCAGGUGAACCUCTT against Gch1 -0.505

Following part.

z-score, active:
GGAGUGAAGGUUCAGAUCCTT against Asic2 3.1
CGAGCUUAUGCUGAAACCATT against 3830417A13Rik -2.45
GGGUACAAAGCAACAUUGGTT against Disp1 4.2
